In publication PMC7163453:
Results are given in words; binding and its absence hold for the method and conditions named. In cells and extracts the contact can be indirect. Some binding calls cover weakened binding; strength is not graded here.

Chains of the proteins cited; added tags and fusions are not shown.
UniProt Q16665: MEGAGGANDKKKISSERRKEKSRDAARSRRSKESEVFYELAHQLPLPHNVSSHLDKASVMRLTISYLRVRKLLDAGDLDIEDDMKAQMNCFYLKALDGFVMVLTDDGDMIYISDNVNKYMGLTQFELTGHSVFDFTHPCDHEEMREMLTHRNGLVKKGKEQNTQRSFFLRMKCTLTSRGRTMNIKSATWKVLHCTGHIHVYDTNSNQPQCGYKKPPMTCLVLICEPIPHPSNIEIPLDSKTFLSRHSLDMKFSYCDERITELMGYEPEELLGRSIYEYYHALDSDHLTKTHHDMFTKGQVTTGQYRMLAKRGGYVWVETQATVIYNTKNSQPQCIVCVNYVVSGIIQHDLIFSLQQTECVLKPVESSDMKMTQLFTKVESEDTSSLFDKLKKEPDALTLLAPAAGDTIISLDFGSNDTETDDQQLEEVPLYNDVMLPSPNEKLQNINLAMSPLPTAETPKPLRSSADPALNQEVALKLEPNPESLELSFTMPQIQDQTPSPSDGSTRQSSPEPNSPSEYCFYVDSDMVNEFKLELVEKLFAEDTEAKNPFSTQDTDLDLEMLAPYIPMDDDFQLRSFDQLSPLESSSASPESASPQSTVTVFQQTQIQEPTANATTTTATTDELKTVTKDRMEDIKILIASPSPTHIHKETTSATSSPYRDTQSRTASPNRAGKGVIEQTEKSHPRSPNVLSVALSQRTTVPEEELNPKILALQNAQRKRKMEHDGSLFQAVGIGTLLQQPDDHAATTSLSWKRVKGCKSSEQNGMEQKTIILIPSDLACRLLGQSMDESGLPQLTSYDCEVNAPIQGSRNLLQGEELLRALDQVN
UniProt P14618: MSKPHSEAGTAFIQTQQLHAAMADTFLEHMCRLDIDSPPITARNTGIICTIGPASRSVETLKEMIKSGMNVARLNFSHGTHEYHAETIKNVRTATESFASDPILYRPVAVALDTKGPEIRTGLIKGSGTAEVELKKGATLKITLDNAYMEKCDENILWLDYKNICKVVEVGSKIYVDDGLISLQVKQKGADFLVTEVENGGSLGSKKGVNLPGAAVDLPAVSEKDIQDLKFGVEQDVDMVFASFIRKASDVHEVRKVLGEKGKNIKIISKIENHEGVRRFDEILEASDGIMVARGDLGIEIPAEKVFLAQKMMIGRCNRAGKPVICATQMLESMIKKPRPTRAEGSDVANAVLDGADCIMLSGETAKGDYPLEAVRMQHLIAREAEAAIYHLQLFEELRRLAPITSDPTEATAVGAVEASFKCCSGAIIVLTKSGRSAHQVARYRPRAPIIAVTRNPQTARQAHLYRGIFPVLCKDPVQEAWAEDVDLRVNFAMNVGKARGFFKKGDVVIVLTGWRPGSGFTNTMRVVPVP

Experiments:
[1] = target: Hypoxia-inducible factor-1 alpha (HIF-1α) (human (endogenous in A549)) (UniProt Q16665); test: co-IP; reciprocal endogenous co-IP; AC020978-knockdown, AC020978-overexpressing and control groups; which protein was precipitated is not given
[2] = target: Hypoxia-inducible factor-1 alpha (HIF-1α) (human (endogenous in A549)) (UniProt Q16665); test: proximity ligation; Duolink in situ PLA on fixed, permeabilised A549 cells with anti-PKM2 and anti-HIF-1α antibodies; AC020978-knockdown, AC020978-overexpressing and control groups

- binding [1]: binds
- binding [2]: binds
Substance: Pyruvate kinase isozymes M2 (PKM2) (from UniProt P14618 1-531)
